# Results are given in words; binding and its absence hold for the method and conditions named. Some binding calls cover weakened binding; strength is not graded here. Sequences can lack the tags named with a protein.
# What was measured:
# [1] = target: fusion protein according to the invention with linker peptide according to SEQ ID No. 2 (human) (UniProt P05455); assay: SPR, dimerisation (Fig. 8G)
# [2] = target: fusion protein according to the invention with linker peptide according to SEQ ID No. 2 (human) (UniProt P05455); assay: SPR, fusion protein with linker peptide SEQ ID No. 2 coupled to the chip (Fig. 8G)
binder,measurement,setting,value
"WEVLEGEVEKEALKKIIEDQQESLNKWKSKGRRFKGKGKGNK (peptide, not shown: large carriers) [fusion protein according to the invention with linker peptide according to SEQ ID No. 2]",binding,[1],binds
same,binding,[2],binds

# Source: patent WO2012017069A1
